According to US20250101378A1, “CULTURE MEDIUM AND CULTURE METHOD FOR MAMMARY EPITHELIAL CELLS, AND USE OF MAMMARY EPITHELIAL CELLS” (PRECEDO PHARMACEUTICALS CO., LTD, priority 2022, published 2025):
For at least one compound, name, drawing or mass did not settle the structure.

System: breast tumor cells (5 #)
Experiment: In vitro drug sensitivity test, Cell Titer-Glo cell viability
Assay type: cell-based, human
Conditions: 72 hours after drug administration, 1:3 dilution series from 2 times Cmax
Description: I. Plating of primary breast cancer cells: using the culture medium of the invention in section (5) of Example 1, breast tumor cells (5 #) were cultured by the method described in section (1) of Example 2, and the cells were inoculated in a 384-well plate at a density of 3000 to 5000 cells/well, and the cells were subjected to adherent culture overnight.
(1) The drug storage plate was prepared by the concentration gradient dilution method: 10 μL of the drug stock solutions to be tested (the concentration of the drug stock solution was prepared at 2 times the maximum plasma concentration Cmax of the drug in the human body) were respectively taken and added to a 0.5 mL EP tube containing 20 μL of DMSO, and then 10 μL was aspirated from the above EP tube into a second 0.5 mL EP tube containing 20 μL of DMSO, that is, the drug was diluted 1:3. The above process was repeated for gradually dilution until 8 or 9 concentrations required for dosing were obtained. […]
(3) Cell activity detection: 72 hours after drug administration, Cell Titer-Glo assay kit (manufactured by Promega) was used to detect the chemiluminescence value of the cultured cells after drug administration. […] The prepared Cell Titer-Glo detection solution was added to each well, and a microplate reader was used to detect the chemiluminescence value after mixing. […]

In the case of `CN1CCN(c2ccc3nc(-c4c(N)c5c(F)cccc5[nH]c4=O)[nH]c3c2)CC1` [dovitinib], the “sensitivity of breast cancer cells to drug (in words)” value is reported as “less sensitive”.

In the case of `CC(=O)c1c(C)c2cnc(Nc3ccc(N4CCNCC4)cn3)nc2n(C2CCCC2)c1=O` [palbociclib], the “sensitivity of breast cancer cells to drug (in words)” value is reported as “less sensitive”.
